Data reported in US11490623B2, “Oral care compositions and methods for anti-attachment polymers and coatings” (Colgate-Palmolive Company, priority 2016, dated 2022).

Tested on: Lactobacillus casei, Fusobacterium nucleatum, Streptococcus oralis, Veillonella parvula, and Actinomyces viscosus
Test: Short Interval Kill Treatment (SIKT) assay
Details: 1% polymer or […] CPC, 37° C., 2 minutes

CCCCCCCCCCCCCCCC[n+]1ccccc1 [CPC, cetylpyridinium chloride]
% Killed (Live-Dead Stain): 98.85%
